Measured values: PMC10123114
Results are given in words; binding and its absence hold for the method and conditions named. Binding seen in cells or lysates may run through a third protein. Some binding calls cover weakened binding; strength is not graded here. For some assays here: Where a sequence is shown, tags or fusion partners need not be part of it.

T1: Flag-NAF1 (UniProt Q96HR8)
T1 sequence: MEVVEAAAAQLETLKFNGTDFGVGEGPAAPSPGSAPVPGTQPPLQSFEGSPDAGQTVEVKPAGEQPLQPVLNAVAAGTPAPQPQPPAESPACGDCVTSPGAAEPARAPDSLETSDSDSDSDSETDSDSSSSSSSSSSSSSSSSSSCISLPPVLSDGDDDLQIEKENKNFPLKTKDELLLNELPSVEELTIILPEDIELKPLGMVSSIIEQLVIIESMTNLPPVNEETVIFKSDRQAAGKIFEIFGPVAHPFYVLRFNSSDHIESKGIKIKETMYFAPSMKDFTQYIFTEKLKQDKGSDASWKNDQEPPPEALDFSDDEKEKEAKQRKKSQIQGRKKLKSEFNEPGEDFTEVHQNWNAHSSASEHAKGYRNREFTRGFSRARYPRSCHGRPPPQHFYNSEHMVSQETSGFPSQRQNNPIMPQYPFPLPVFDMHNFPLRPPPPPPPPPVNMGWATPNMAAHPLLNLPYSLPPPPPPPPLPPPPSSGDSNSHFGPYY

T2: GFP-SHQ1 (UniProt Q6PI26)
T2 sequence: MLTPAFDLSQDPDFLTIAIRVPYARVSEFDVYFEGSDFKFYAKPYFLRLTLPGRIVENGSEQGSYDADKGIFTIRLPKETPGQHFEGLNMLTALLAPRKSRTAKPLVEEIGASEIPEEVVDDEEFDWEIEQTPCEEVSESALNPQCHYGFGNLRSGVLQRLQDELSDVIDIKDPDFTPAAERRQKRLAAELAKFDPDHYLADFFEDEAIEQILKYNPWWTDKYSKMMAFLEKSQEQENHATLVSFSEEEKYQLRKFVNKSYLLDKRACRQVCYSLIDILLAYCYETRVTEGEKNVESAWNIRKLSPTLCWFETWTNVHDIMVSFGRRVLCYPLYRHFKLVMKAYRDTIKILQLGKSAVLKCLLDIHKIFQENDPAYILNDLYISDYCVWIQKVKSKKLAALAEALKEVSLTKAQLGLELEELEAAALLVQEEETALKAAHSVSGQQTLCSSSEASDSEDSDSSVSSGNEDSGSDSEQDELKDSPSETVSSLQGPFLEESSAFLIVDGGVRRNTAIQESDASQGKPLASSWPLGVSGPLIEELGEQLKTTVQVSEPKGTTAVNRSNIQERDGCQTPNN

T3: Flag-NHP2 (UniProt Q9NX24)
T3 sequence: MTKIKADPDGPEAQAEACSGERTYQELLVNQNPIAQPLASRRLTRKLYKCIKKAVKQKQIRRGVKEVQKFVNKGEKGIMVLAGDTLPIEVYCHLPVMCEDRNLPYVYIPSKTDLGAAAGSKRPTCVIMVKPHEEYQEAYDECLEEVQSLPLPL

T4: NHP2 (endogenous) (human (endogenous in HEK293)) (UniProt Q9NX24)
T4 sequence: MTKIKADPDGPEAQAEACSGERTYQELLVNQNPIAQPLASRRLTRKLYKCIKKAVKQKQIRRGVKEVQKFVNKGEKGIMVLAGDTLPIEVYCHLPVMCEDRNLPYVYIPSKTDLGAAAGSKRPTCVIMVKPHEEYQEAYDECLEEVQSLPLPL

T5: GFP-SHQ1, Q6PI26
T5 chain: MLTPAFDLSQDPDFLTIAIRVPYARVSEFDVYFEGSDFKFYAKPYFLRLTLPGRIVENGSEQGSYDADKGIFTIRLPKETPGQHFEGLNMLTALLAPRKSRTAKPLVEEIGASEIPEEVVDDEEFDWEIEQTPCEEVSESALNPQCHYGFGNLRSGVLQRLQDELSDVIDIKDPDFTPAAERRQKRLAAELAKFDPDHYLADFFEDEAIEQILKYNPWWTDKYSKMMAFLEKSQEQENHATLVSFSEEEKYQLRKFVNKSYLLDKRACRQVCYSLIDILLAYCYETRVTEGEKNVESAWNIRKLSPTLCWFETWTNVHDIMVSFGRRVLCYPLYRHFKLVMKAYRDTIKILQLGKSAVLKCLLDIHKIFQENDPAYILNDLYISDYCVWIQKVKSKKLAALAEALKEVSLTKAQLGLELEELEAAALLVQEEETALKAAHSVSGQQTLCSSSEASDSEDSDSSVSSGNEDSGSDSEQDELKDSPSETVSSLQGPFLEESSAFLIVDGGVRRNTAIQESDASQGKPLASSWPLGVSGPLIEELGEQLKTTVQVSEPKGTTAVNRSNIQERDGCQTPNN


How the values were obtained:
[1] = molecular target: T1, Flag-NAF1; test: co-IP; as a2 but with RNase A at 100 μg/ml in the IP; tagged bait expressed 3 h; western blot
[2] = molecular target: T2, GFP-SHQ1; test: as above
[3] = molecular target: T1, Flag-NAF1; test: co-IP + co-sedimentation; Flag-NAF1, anti-Flag IP in the absence of RNases, elution with Flag peptide, 10-30% glycerol gradient (18 fractions), western blot of fractions
[4] = molecular target: T3, Flag-NHP2; test: co-IP + co-sedimentation; Flag-NHP2 expressed 12 h, anti-Flag IP, elution with Flag peptide, concentration, 10-30% glycerol gradient (18 fractions), western blot of fractions
[5] = molecular target: T1, Flag-NAF1; test: co-IP + co-sedimentation; Flag-NAF1, anti-Flag IP in the presence of RNase A (100 μg/ml), elution with Flag peptide, 10-30% glycerol gradient (18 fractions), western blot of fractions
[6] = molecular target: T3, Flag-NHP2; test: co-IP; anti-Flag M2 affinity gel on extracts of HEK293 Flp-In T-REx cells expressing Flag-NHP2 for 12 h; with or without RNase A; cells untreated or treated with 20 μM ADOX for 24 h; western blot
[7] = molecular target: T1, Flag-NAF1; test: co-IP; anti-Flag M2 affinity gel or GFP-Trap on total extracts of HEK293 Flp-In T-REx cells, tagged bait expressed 3 h; RSB150 (10 mM Tris-HCl pH 7.5, 150 mM NaCl, 2.5 mM MgCl2) with 0.05% NP-40, 2 h at 4 °C; without RNase A; western blot
[8] = molecular target: T2, GFP-SHQ1; test: as above
[9] = molecular target: T3, Flag-NHP2; test: condition: only Flag-NHP2 expressed for 3 h (associated after 12 h); co-IP; anti-Flag M2 affinity gel or GFP-Trap on total extracts of HEK293 Flp-In T-REx cells, tagged bait expressed 3 h; RSB150 (10 mM Tris-HCl pH 7.5, 150 mM NaCl, 2.5 mM MgCl2) with 0.05% NP-40, 2 h at 4 °C; without RNase A; western blot
[10] = molecular target: T3, Flag-NHP2; test: co-IP; as a2 but with RNase A at 100 μg/ml in the IP; tagged bait expressed 3 h; western blot
[11] = molecular target: T4, NHP2 (endogenous) (human (endogenous in HEK293)); test: co-IP; anti-NHP2 antibody bound to protein A-Sepharose on HEK293 cell extracts (endogenous proteins); RSB150 with 0.05% NP-40; western blot
[12] = molecular target: T3, Flag-NHP2; test: co-IP + co-sedimentation; Flag-NHP2 expressed 3 h, anti-Flag IP, elution with Flag peptide, concentration, 10-30% glycerol gradient (18 fractions), western blot of fractions
[13] = molecular target: T3, Flag-NHP2; test: co-IP; anti-Flag M2 affinity gel or GFP-Trap on total extracts of HEK293 Flp-In T-REx cells, tagged bait expressed 3 h; RSB150 (10 mM Tris-HCl pH 7.5, 150 mM NaCl, 2.5 mM MgCl2) with 0.05% NP-40, 2 h at 4 °C; without RNase A; western blot
[14] = molecular target: T5, GFP-SHQ1, Q6PI26; test: as above; settings: remark: other sources report otherwise

Binder	binding [1]	binding [2]	binding [3]	binding [4]	binding [5]	binding [6]	binding [7]	binding [8]	binding [9]	binding [10]	binding [11]	binding [12]	binding [13]	binding [14]
NHP2 (endogenous) (protein, UniProt Q9NX24 1-153) MTKIKADPDGPEAQAEACSGERTYQELLVNQNPIAQPLASRRLTRKLYKCIKKAVKQKQIRRGVKEVQKFVNKGEKGIMVLAGDTLPIEVYCHLPVMCEDRNLPYVYIPSKTDLGAAAGSKRPTCVIMVKPHEEYQEAYDECLEEVQSLPLPL	binds	binds	binds	binds	binds	binds	binds	binds	no binding					
NOP10 (protein, UniProt Q9NPE3 1-64) MFLQYYLNEQGDRVYTLKKFDPMGQQTCSAHPARFSPDDKYSRHRITIKKRFKVLMTQQPRPVL	binds	binds	binds		binds		binds	binds						
NAF1 (endogenous) (protein, UniProt Q96HR8 1-494) MEVVEAAAAQLETLKFNGTDFGVGEGPAAPSPGSAPVPGTQPPLQSFEGSPDAGQTVEVKPAGEQPLQPVLNAVAAGTPAPQPQPPAESPACGDCVTSPGAAEPARAPDSLETSDSDSDSDSETDSDSSSSSSSSSSSSSSSSSSCISLPPVLSDGDDDLQIEKENKNFPLKTKDELLLNELPSVEELTIILPEDIELKPLGMVSSIIEQLVIIESMTNLPPVNEETVIFKSDRQAAGKIFEIFGPVAHPFYVLRFNSSDHIESKGIKIKETMYFAPSMKDFTQYIFTEKLKQDKGSDASWKNDQEPPPEALDFSDDEKEKEAKQRKKSQIQGRKKLKSEFNEPGEDFTEVHQNWNAHSSASEHAKGYRNREFTRGFSRARYPRSCHGRPPPQHFYNSEHMVSQETSGFPSQRQNNPIMPQYPFPLPVFDMHNFPLRPPPPPPPPPVNMGWATPNMAAHPLLNLPYSLPPPPPPPPLPPPPSSGDSNSHFGPYY		binds		binds				binds		binds		binds	binds	

Other lines, results leading:

binding [1]	binding [2]	binding [3]	binding [4]	binding [5]	binding [6]	binding [7]	binding [8]	binding [9]	binding [10]	binding [11]	binding [12]	binding [13]	binding [14]	Binder
binds			binds	binds		binds			binds	binds weakly	binds	binds		SHQ1 (endogenous) (protein, UniProt Q6PI26 1-577) MLTPAFDLSQDPDFLTIAIRVPYARVSEFDVYFEGSDFKFYAKPYFLRLTLPGRIVENGSEQGSYDADKGIFTIRLPKETPGQHFEGLNMLTALLAPRKSRTAKPLVEEIGASEIPEEVVDDEEFDWEIEQTPCEEVSESALNPQCHYGFGNLRSGVLQRLQDELSDVIDIKDPDFTPAAERRQKRLAAELAKFDPDHYLADFFEDEAIEQILKYNPWWTDKYSKMMAFLEKSQEQENHATLVSFSEEEKYQLRKFVNKSYLLDKRACRQVCYSLIDILLAYCYETRVTEGEKNVESAWNIRKLSPTLCWFETWTNVHDIMVSFGRRVLCYPLYRHFKLVMKAYRDTIKILQLGKSAVLKCLLDIHKIFQENDPAYILNDLYISDYCVWIQKVKSKKLAALAEALKEVSLTKAQLGLELEELEAAALLVQEEETALKAAHSVSGQQTLCSSSEASDSEDSDSSVSSGNEDSGSDSEQDELKDSPSETVSSLQGPFLEESSAFLIVDGGVRRNTAIQESDASQGKPLASSWPLGVSGPLIEELGEQLKTTVQVSEPKGTTAVNRSNIQERDGCQTPNN
													no binding	SHQ1 (endogenous), Q6PI26 1-577 (protein) MLTPAFDLSQDPDFLTIAIRVPYARVSEFDVYFEGSDFKFYAKPYFLRLTLPGRIVENGSEQGSYDADKGIFTIRLPKETPGQHFEGLNMLTALLAPRKSRTAKPLVEEIGASEIPEEVVDDEEFDWEIEQTPCEEVSESALNPQCHYGFGNLRSGVLQRLQDELSDVIDIKDPDFTPAAERRQKRLAAELAKFDPDHYLADFFEDEAIEQILKYNPWWTDKYSKMMAFLEKSQEQENHATLVSFSEEEKYQLRKFVNKSYLLDKRACRQVCYSLIDILLAYCYETRVTEGEKNVESAWNIRKLSPTLCWFETWTNVHDIMVSFGRRVLCYPLYRHFKLVMKAYRDTIKILQLGKSAVLKCLLDIHKIFQENDPAYILNDLYISDYCVWIQKVKSKKLAALAEALKEVSLTKAQLGLELEELEAAALLVQEEETALKAAHSVSGQQTLCSSSEASDSEDSDSSVSSGNEDSGSDSEQDELKDSPSETVSSLQGPFLEESSAFLIVDGGVRRNTAIQESDASQGKPLASSWPLGVSGPLIEELGEQLKTTVQVSEPKGTTAVNRSNIQERDGCQTPNN
binds	binds	binds	binds	binds		binds	binds		binds	binds	binds	binds		dyskerin (protein, UniProt O60832 1-514) MADAEVIILPKKHKKKKERKSLPEEDVAEIQHAEEFLIKPESKVAKLDTSQWPLLLKNFDKLNVRTTHYTPLACGSNPLKREIGDYIRTGFINLDKPSNPSSHEVVAWIRRILRVEKTGHSGTLDPKVTGCLIVCIERATRLVKSQQSAGKEYVGIVRLHNAIEGGTQLSRALETLTGALFQRPPLIAAVKRQLRVRTIYESKMIEYDPERRLGIFWVSCEAGTYIRTLCVHLGLLLGVGGQMQELRRVRSGVMSEKDHMVTMHDVLDAQWLYDNHKDESYLRRVVYPLEKLLTSHKRLVMKDSAVNAICYGAKIMLPGVLRYEDGIEVNQEIVVITTKGEAICMAIALMTTAVISTCDHGIVAKIKRVIMERDTYPRKWGLGPKASQKKLMIKQGLLDKHGKPTDSTPATWKQEYVDYSESAKKEVVAEVVKAPQVVAEAAKTAKRKRESESESDETPPAAPQLIKKEKKKSKKDKKAKAGLESGAEPGDGDSDTTKKKKKKKKAKEVELVSE
